Primary screen of a compound library

The chains behind the UniProt entries cited, without tags or fusion partners.
UniProt P9WPC5, whole entry: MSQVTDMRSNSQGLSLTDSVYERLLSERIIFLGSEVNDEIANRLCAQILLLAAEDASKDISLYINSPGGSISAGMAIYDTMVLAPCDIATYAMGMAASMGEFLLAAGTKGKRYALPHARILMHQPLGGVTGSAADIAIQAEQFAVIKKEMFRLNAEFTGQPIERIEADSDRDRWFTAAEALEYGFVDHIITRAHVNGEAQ
UniProt P9WPC3, whole entry partner: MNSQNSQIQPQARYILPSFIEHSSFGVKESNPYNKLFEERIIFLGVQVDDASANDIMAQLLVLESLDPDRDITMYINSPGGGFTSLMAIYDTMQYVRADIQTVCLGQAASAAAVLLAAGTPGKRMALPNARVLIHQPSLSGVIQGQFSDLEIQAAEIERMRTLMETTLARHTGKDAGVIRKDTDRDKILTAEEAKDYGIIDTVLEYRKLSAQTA

Toxoplasma: 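Assay of Toxoplasma gondii numbers, read through their beta-galactosidase reporter with a colour substrate. Tested at 10 µM. The record gives no direction; the compounds picked for IC50 retests had high values, so higher reads as fewer parasites. Of about 67,000 compounds tested this way, about 260 (0.38%) reached 50% or more in at least one test.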
ClpP1P2: 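ClpP1P2, Mycobacterium tuberculosis (UniProt P9WPC5 and UniProt P9WPC3). Protease assay of ClpP1P2, read by the AMC dye that it sets free. Compounds at 50 µM. Higher reads as stronger inhibition, judged from the few compounds that gave an IC50. Most other retested compounds had strongly negative values. Of about 69,000 compounds tested this way, about 10 (0.015%) reached 50% or more in at least one test.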
Leishmania in macrophages: 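Cell assay of Leishmania donovani living inside macrophages; the read-out is not stated. Tested at 30 µM. The record gives no direction; compounds that gave an IC50 in retests scored well above the rest, so higher reads as stronger inhibition. Size under these conditions: about 69,000 compounds, about 1,000 of them at 50% or above in at least one test.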
T. brucei: 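Whole-parasite assay of Trypanosoma brucei over 72 hours; the read-out is not stated. Compounds at 30 µM. Direction is inferred from retests: higher values go with stronger inhibition. Values scatter widely below zero; nearly all retest evidence comes from the higher of the two concentrations used. Of about 64,000 compounds tested this way, about 940 (1.5%) reached 50% or more in at least one test.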

The filed quantity is “Percent Effect” (%).
The controls that fix the scale are not given in the record; negative values are as filed.
This is an unselected part of the compounds tested.
A dash means the value is not listed here; it may have been measured.

{"structure": "CO[C@@H]1CC[C@H]2[C@H]1OCCN2C(=O)C1=CCCC1", "ClpP1P2": -12.43}
{"structure": "COCCn1cnnc1Cn1ccnc1-c1ccoc1", "Toxoplasma": -4.408, "ClpP1P2": -12.59, "Leishmania in macrophages": -16.41, "T. brucei": -19.79}
{"structure": "CCC1(CC)CC(=O)N(CC(O)c2ccc(Cl)cc2)C1=O", "stereo": "stereo unspecified", "Toxoplasma": 25.37, "ClpP1P2": -2.749, "Leishmania in macrophages": 23.07, "T. brucei": -60.4}
{"structure": "CCN1C(=O)CCCC12CCCN(C(=O)c1cc(C)oc1C)C2", "stereo": "stereo unspecified", "Toxoplasma": 9.726, "ClpP1P2": -4.461, "Leishmania in macrophages": 4.865, "T. brucei": 1.714}
{"structure": "Cc1cc(C(=O)NCC(C)C)nn1C", "Toxoplasma": 9.135, "ClpP1P2": 12.4, "Leishmania in macrophages": 3.079, "T. brucei": -26.37}
{"structure": "CCc1[nH]c2c(CNC(=O)C3CNC(=O)C3)cc(C)cc2c1C", "stereo": "stereo unspecified", "Toxoplasma": -7.442, "ClpP1P2": -32.48, "Leishmania in macrophages": 7.728}
{"structure": "COCC(=O)N(C)Cc1ccc(OCc2cccs2)cc1", "Toxoplasma": -1.282, "ClpP1P2": 4.016, "Leishmania in macrophages": 16.82, "T. brucei": -2.596}
{"structure": "c1ccc2c(c1)ccn2CCCNC1CCOC2(CCOCC2)C1", "stereo": "stereo unspecified", "Toxoplasma": 13.12, "ClpP1P2": -6.311, "Leishmania in macrophages": 13.85, "T. brucei": -13.91}
{"structure": "O=C1CC2(CCN(c3nncs3)C2)CN1c1ccccc1", "stereo": "stereo unspecified", "Toxoplasma": -13.64, "ClpP1P2": -6.788, "Leishmania in macrophages": 11.16, "T. brucei": -44.56}
{"structure": "CCc1cc(NCCc2ccc(O)cc2)n2nccc2n1", "Toxoplasma": -0.5473, "ClpP1P2": -26.1, "Leishmania in macrophages": 12.96, "T. brucei": -14.54}
{"structure": "Cc1cnc2n1CCN(C)C21CCN(C(=O)CC(C)C)CC1", "ClpP1P2": 3.825}
{"structure": "CCc1cnc(CN2CCCC2c2noc(C3CC3)n2)o1", "stereo": "stereo unspecified", "Toxoplasma": 3.389, "ClpP1P2": 20.54, "Leishmania in macrophages": 23.51, "T. brucei": -1.975}
{"structure": "O=C(O)C(F)(F)F.[H][C@@]12CCN(c3ccccc3)C[C@@]1([H])O[C@@H](C(=O)NCCOC)C2", "Toxoplasma": 0.4456, "Leishmania in macrophages": 17.57, "T. brucei": -28.03}
{"structure": "CCC1CN(CC(=O)Nc2sccc2C#N)CCO1", "stereo": "stereo unspecified", "Toxoplasma": -13.97, "ClpP1P2": 14.08, "Leishmania in macrophages": 29.42, "T. brucei": 0.8518}
{"structure": "COC(C)(C)CNC(=O)C1CCC(=O)N(C2CCCC2)C1", "stereo": "stereo unspecified", "Toxoplasma": 4.33, "ClpP1P2": 2.548, "Leishmania in macrophages": -15.46, "T. brucei": -25.99}
{"structure": "CC(=O)N1CCC2(CCN(C(=O)c3ccc(Cl)c(C(F)(F)F)c3)CC2)C1", "Toxoplasma": -0.1544, "ClpP1P2": -1.438, "Leishmania in macrophages": 16.3, "T. brucei": 14.94}
{"structure": "Cc1cc(NC(=O)CN2CCc3c(nc(C(C)C)n3C)C2)on1", "Toxoplasma": -4.358, "ClpP1P2": -1.334, "Leishmania in macrophages": 8.23, "T. brucei": -3.37}
{"structure": "CC(C)c1cc(N2CCC(NS(C)(=O)=O)C2)nc(C(C)C)n1", "stereo": "stereo unspecified", "ClpP1P2": -14.09, "Leishmania in macrophages": 3.373, "T. brucei": -39.24}
{"structure": "COc1ccccc1[C@@H]1CN(Cc2cnc(N(C)C)nc2)C[C@H]1C(=O)O", "Toxoplasma": -1.85, "ClpP1P2": -2.043, "Leishmania in macrophages": 11.71, "T. brucei": 1.816}
{"structure": "CN(C(=O)Cc1ccc(F)cc1)C1CCN(c2ccccn2)CC1", "Toxoplasma": -4.134, "ClpP1P2": -16.4, "Leishmania in macrophages": 18.47, "T. brucei": 5.443}
{"structure": "O=C1NCCN1C1CCN(Cc2nc(-c3ccoc3)no2)CC1", "Toxoplasma": -0.6353, "ClpP1P2": 2.858, "Leishmania in macrophages": 14.49, "T. brucei": 26.04}
{"structure": "CNc1cc(C2CN(C(=O)c3ccccc3)CCO2)nc(C)n1", "stereo": "stereo unspecified", "Toxoplasma": 0.9859, "ClpP1P2": -9.787, "Leishmania in macrophages": 3.881, "T. brucei": -5.565}
{"structure": "Cc1cc(C)n2nc(C(=O)N3CCCC4(CCOC4)C3)cc2n1", "stereo": "stereo unspecified", "Toxoplasma": 2.021, "ClpP1P2": -3.726, "Leishmania in macrophages": 7.208, "T. brucei": -27.69}
{"structure": "Cc1cccc2[nH]c(C3CCN(C(=O)c4ccnn4C)CC3)nc12", "Toxoplasma": 4.095, "ClpP1P2": 9.072, "Leishmania in macrophages": 27.75, "T. brucei": -82.99}
{"structure": "c1ccc(CN2CCO[C@H]3[C@H](OCCN4CCCC4)CC[C@@H]32)nc1", "ClpP1P2": -8.452}
{"structure": "O=C(CNc1ccc(F)cc1OCC(F)(F)F)NCc1ccco1", "Toxoplasma": 24.52, "ClpP1P2": -9.5, "Leishmania in macrophages": 19.54, "T. brucei": 0.3997}
{"structure": "CO[C@@H]1CCN(c2nnc(C)s2)C[C@@H]1Cc1cccc(C)c1.O=C(O)C(F)(F)F", "Toxoplasma": 6.527, "Leishmania in macrophages": 3.085, "T. brucei": -8.568}
{"structure": "CCOC[C@@H]1CC[C@H]2[C@H](CCN2Cc2c(C)noc2C)O1", "ClpP1P2": -2.461}
{"structure": "CN(C)S(=O)(=O)N1C[C@H]2CCC[C@@]2(COc2cccnc2)C1", "ClpP1P2": 8.513}
{"structure": "O=C(N1CCCC1)N1C[C@@H]2CN(Cc3ccoc3)CCO[C@@H]2C1", "ClpP1P2": 0.7304}
{"structure": "CC[C@H]1CN(C(=O)c2cccc(-n3cnnc3)n2)CC[C@@]1(C)O", "Toxoplasma": 31.74, "ClpP1P2": 11.1, "Leishmania in macrophages": 34.44, "T. brucei": -50.13}

The last 4 entries again:

structure,Toxoplasma,ClpP1P2,Leishmania in macrophages,T. brucei
CCOC[C@@H]1CC[C@H]2[C@H](CCN2Cc2c(C)noc2C)O1,-,-2.461%,-,-
CN(C)S(=O)(=O)N1C[C@H]2CCC[C@@]2(COc2cccnc2)C1,-,8.513%,-,-
O=C(N1CCCC1)N1C[C@@H]2CN(Cc3ccoc3)CCO[C@@H]2C1,-,0.7304%,-,-
CC[C@H]1CN(C(=O)c2cccc(-n3cnnc3)n2)CC[C@@]1(C)O,31.74%,11.1%,34.44%,-50.13%

Data taken from ChEMBL document CHEMBL3988442, “University of Dundee, Small-Polar-MMV Screening Library” (2021).